The list shows a part of the results. Many values rest on one well or one pass, so single values are uncertain.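 Cells were imaged in 1,536-well plates, and nuclei stained with an antibody against cleaved PARP were counted against all DNA-stained nuclei to give the apoptosis fraction. Screening doses were chosen to leave most cells alive, and resting and induced cleaved-PARP levels differ strongly between cell lines.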
Key:
Assay in all cases: cleaved PARP positive nuclei fraction relative to DMSO control; melanoma cells; higher = more apoptosis
Details in all cases: library dose: low library concentration; 72 h
501Mel = tested on: 501Mel
A101D = tested on: A101D
A2058 = tested on: A2058
C32 = tested on: C32
CBRC008 = tested on: CBRC008 (line from a melanoma biopsy)
CBRC014 = tested on: CBRC014 (line from a melanoma biopsy)
CBRC016 = tested on: CBRC016 (line from a melanoma biopsy)
CBRC017 = tested on: CBRC017 (line from a melanoma biopsy)
A375 = tested on: A375
CBRC013 = tested on: CBRC013 (line from a melanoma biopsy)

SMILES	cleaved PARP positive nuclei fraction (501Mel) [%]	cleaved PARP positive nuclei fraction (A101D) [%]	cleaved PARP positive nuclei fraction (A2058) [%]	cleaved PARP positive nuclei fraction (C32) [%]	cleaved PARP positive nuclei fraction (CBRC008) [%]	cleaved PARP positive nuclei fraction (CBRC014) [%]	cleaved PARP positive nuclei fraction (CBRC016) [%]	cleaved PARP positive nuclei fraction (CBRC017) [%]	cleaved PARP positive nuclei fraction (A375) [%]	cleaved PARP positive nuclei fraction (CBRC013) [%]
NC1(c2ccc(-c3nc4ccn5c(=O)[nH]nc5c4cc3-c3ccccc3)cc2)CCC1 + O=C1NC(=O)/C(=C/c2ccc(-c3ccc(F)cc3O)o2)S1 [AS252424] (first compound 0.4 µM, partner dose 1 µM)	26.3	15.9	150	94.8	142	119	73.4	81	–	–
CC(=O)O[C@@]12CO[C@@H]1C[C@H](O)[C@@]1(C)C(=O)[C@H](O)C3=C(C)[C@@H](OC(=O)[C@H](O)[C@@H](NC(=O)OC(C)(C)C)c4ccccc4)C[C@@](O)([C@@H](OC(=O)c4ccccc4)[C@H]21)C3(C)C [Docetaxel] + O=c1cc(-c2cccc3c2Sc2ccccc2S3)oc(N2CCOCC2)c1 [KU55933] (first compound 0.0001 µM, partner dose 1 µM)	338	68.9	18100	52.3	314	165	144	137	–	–
CC1(C)CCC(c2ccc(Cl)cc2)=C(CN2CCN(c3ccc(C(=O)NS(=O)(=O)c4ccc(N[C@H](CCN5CCOCC5)CSc5ccccc5)c(S(=O)(=O)C(F)(F)F)c4)cc3)CC2)C1 + O=C(Nc1cccc(Cl)c1)Nc1ncc(CCNc2ncnc3ccsc23)s1 [SNS314] (first compound 0.4 µM, partner dose 0.0008 µM)	–	165	207	365	717	435	472	378	170	161
CC(=O)O[C@@]12CO[C@@H]1C[C@H](O)[C@@]1(C)C(=O)[C@H](O)C3=C(C)[C@@H](OC(=O)[C@H](O)[C@@H](NC(=O)OC(C)(C)C)c4ccccc4)C[C@@](O)([C@@H](OC(=O)c4ccccc4)[C@H]21)C3(C)C [Docetaxel] + CCc1ccc(CCOc2ccc(CC3SC(=O)NC3=O)cc2)nc1 [pioglitazone] (first compound 0.0001 µM, partner dose 2 µM)	105	50.1	2000	916	154	156	125	277	–	–
C[C@@H](N)c1ccc(C(=O)Nc2ccnc3[nH]ccc23)cc1 + CN(c1ncccc1CNc1nc(Nc2ccc3c(c2)CC(=O)N3)ncc1C(F)(F)F)S(C)(=O)=O [PF562271] (first compound 0.4 µM, partner dose 0.08 µM)	–	105	123	282	175	162	34.2	130	342	–
C[C@]1(O)C[C@@H](c2nc(-c3ccc4ccc(-c5ccccc5)nc4c3)c3c(N)nccn32)C1 + O=C1NC(=O)/C(=C/c2ccc(-c3ccc(F)cc3O)o2)S1 [AS252424] (first compound 0.4 µM, partner dose 1 µM)	76.3	20.9	201	149	242	86.5	84.2	93.1	–	–
C[C@@H](N)c1ccc(C(=O)Nc2ccnc3[nH]ccc23)cc1 + O=C(O)C(=O)Nc1sc2c(c1C(=O)O)CCNC2 [TCS401] (first compound 0.4 µM, partner dose 1.66667 µM)	33.1	31.3	77.8	160	76.2	78.3	133	80.5	–	–
Cn1sc(=O)n(Cc2ccccc2)c1=O + NCC(=O)Nc1ccc(-n2nc(C(F)(F)F)cc2-c2ccc3c(ccc4ccccc43)c2)cc1 [OSU03012] (first compound 0.4 µM, partner dose 1 µM)	–	157	66.8	45	113	82.3	328	138	2250	168
NC(=O)c1ccc(N(C(N)=O)c2c(F)cccc2F)nc1-c1ccc(F)cc1F + COc1ccc(COc2ccc(Cc3cnc(N)nc3N)cc2OC)cc1 [GW2580] (first compound 0.4 µM, partner dose 1 µM)	76.5	126	180	910	37.5	94.5	35.7	105	–	–
CS(=O)(=O)c1ccc(C(=O)Nc2ccc(Cl)c(-c3ccccn3)c2)c(Cl)c1 [vismodegib] + O=c1cc(-c2cccc3c2Sc2ccccc2S3)oc(N2CCOCC2)c1 [KU55933] (first compound 1 µM, partner dose 1 µM)	66.1	28.5	35.7	38.6	65.9	98.8	37.9	86.7	–	–
CN(c1ncccc1CNc1nc(Nc2ccc3c(c2)CC(=O)N3)ncc1C(F)(F)F)S(C)(=O)=O + COc1cc2c(Oc3ccc4[nH]c(C)cc4c3F)ncnc2cc1OCCCN1CCCC1 [cediranib] (first compound 0.08 µM, partner dose 0.4 µM)	–	82.4	53.5	176	63	98.8	117	109	85.7	101
